Data taken from article PMC5438423.
No constants are given. Whether binding was seen depends on the method and setting. In cells and extracts the contact can be indirect. Some binding calls cover weakened binding; strength is not graded here.

Molecular target: T1, alpha4 protein (mouse (endogenous in LV tissue)) (UniProt Q61249)
T1 sequence: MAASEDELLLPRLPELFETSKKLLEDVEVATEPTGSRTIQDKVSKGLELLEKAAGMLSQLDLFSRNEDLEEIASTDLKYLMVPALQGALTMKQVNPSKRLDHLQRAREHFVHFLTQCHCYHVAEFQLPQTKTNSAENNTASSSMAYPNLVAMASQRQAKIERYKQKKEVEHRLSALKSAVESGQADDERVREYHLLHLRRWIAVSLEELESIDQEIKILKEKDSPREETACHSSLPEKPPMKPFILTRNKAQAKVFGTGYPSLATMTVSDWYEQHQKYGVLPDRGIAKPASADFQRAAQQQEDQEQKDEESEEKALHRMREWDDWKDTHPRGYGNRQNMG
Assay: co-IP; alpha4 immunoprecipitated from Triton-soluble mouse LV tissue lysate (SHAM or TAC, 4 weeks pressure overload) with rabbit polyclonal anti-alpha4 antibody overnight at 4 °C and protein A paramagnetic beads; lysis buffer 150 mM NaCl, 20 mM Tris-HCl, 1% Triton X-100, pH 7.5; controls rabbit IgG and PBS; blots for PP2AC and PP6C in immunocomplexes and in pre-IP and post-IP lysates

B1: PP6C, protein phosphatase 6 catalytic subunit (enzyme, UniProt Q9CQR6 1-305)
chain: MAPLDLDKYVEIARQCKYLPENDLKRLCDYVCDLLLEESNVQPVSTPVTVCGDIHGQFYDLCELFRTGGQVPDTNYIFMGDFVDRGYYSLETFTYLLALKAKWPDRITLLRGNHESRQITQVYGFYDECQTKYGNANAWRYCTKVFDMLTVAALIDEQILCVHGGLSPDIKTLDQIRTIERNQEIPHKGAFCDLVWSDPEDVDTWAISPRGAGWLFGAKVTNEFVHINNLKLICRAHQLVHEGYKFMFDEKLVTVWSAPNYCYRCGNIASIMVFKDVNTREPKLFRAVPDSERVIPPRTTTPYFL
**Q.** With B1 as the binder, how does the binding read?
**A.** The binding was “binds”.
